Results reported in paper PMC7031854.
Results are given in words; binding and its absence hold for the method and conditions named. Some binding calls cover weakened binding; strength is not graded here.

By UniProt entry, the sequences of proteins in these tests, tags left out. Where a name states a change or a piece, a line headed by the entry shows the natural chain unless it says otherwise.
UniProt P49951: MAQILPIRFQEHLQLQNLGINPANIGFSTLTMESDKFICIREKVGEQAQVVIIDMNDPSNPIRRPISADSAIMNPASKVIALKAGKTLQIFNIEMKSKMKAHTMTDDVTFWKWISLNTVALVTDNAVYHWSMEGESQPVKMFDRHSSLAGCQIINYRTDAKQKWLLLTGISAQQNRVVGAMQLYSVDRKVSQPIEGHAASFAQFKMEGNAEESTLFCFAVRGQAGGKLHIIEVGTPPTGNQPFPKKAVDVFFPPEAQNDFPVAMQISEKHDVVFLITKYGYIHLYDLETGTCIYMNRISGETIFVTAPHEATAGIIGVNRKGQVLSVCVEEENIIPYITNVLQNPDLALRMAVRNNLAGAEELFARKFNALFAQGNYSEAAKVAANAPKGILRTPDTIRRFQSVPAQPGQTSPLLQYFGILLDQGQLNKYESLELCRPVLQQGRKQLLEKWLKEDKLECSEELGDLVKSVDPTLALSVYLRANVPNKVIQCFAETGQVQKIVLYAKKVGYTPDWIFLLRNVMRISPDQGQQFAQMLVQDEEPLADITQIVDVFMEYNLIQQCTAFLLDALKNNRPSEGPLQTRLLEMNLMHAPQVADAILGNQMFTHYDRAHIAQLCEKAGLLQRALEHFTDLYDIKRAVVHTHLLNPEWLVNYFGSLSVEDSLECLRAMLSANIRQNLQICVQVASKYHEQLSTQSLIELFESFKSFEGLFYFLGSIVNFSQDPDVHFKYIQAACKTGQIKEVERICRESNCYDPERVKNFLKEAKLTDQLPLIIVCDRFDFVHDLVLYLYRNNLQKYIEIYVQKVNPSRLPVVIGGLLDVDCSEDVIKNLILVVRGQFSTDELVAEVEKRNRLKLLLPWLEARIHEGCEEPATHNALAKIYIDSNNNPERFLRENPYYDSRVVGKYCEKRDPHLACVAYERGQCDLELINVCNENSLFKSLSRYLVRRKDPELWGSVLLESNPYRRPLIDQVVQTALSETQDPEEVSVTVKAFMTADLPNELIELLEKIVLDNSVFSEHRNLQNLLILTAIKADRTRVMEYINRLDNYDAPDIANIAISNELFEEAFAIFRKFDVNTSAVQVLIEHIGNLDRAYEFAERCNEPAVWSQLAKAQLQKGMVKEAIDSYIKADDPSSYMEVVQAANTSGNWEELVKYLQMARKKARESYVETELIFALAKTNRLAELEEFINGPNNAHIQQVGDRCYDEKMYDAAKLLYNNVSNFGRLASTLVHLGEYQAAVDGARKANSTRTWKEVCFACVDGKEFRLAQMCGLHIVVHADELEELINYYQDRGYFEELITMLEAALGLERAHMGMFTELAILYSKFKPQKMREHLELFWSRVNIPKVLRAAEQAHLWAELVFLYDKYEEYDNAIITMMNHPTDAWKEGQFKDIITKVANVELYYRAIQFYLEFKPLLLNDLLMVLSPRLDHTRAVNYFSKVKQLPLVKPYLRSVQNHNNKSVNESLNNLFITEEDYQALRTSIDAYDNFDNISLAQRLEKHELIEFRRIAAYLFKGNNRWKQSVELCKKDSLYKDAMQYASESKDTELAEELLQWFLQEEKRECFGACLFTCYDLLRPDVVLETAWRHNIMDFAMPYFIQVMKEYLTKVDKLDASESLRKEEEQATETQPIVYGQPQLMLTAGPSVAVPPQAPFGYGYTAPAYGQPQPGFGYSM
UniProt Q27974: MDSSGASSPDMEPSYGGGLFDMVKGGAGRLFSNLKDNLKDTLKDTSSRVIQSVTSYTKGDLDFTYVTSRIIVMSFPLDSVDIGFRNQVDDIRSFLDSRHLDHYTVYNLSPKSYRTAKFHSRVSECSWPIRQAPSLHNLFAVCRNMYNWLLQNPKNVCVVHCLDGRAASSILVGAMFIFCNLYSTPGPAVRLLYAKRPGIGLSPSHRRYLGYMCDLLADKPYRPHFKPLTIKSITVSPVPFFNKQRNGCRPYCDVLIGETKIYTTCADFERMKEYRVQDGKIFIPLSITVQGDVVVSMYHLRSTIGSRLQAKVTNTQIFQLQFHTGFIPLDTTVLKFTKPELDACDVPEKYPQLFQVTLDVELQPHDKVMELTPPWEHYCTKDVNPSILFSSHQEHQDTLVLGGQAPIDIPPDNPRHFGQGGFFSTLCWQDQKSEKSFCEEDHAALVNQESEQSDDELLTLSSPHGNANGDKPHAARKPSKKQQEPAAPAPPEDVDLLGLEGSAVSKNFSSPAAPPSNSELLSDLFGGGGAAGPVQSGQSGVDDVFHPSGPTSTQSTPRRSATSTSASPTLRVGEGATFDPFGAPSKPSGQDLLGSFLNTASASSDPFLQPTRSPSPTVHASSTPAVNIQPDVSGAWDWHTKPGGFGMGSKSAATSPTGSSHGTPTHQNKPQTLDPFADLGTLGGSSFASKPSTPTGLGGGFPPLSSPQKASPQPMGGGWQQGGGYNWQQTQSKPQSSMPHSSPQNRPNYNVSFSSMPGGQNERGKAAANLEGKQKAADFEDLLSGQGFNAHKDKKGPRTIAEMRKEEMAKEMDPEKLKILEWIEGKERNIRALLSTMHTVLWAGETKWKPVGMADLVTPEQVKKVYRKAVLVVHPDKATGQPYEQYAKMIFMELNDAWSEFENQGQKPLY

Molecular target: clathrin cages assembled in vitro from recombinant bovine brain clathrin and auxilin (bovine | not stated) (UniProt P49951+Q27974)
Assay: stopped-flow light scattering; clathrin cages (0.3 μM clathrin heavy chain) with 1 mM ATP and 0.45 μM auxilin in 20 mM imidazole pH 6.8, 10 mM (NH4)2SO4, 25 mM KCl, 2 mM MgAc2, mixed with an equal volume of 4 μM Hsc70; transient increase in scattering read as binding; both purified

With “His-tagged recombinant bovine Hsc70 (from UniProt P19120 1-650)” the binding was “binds”.
